Source: US6512123B2, “Tricyclic alkylhydroxamate derivatives” (Hoffmann-La Roche Inc., priority 2001, dated 2003)

Test system: histone deacetylase (HDAC)
Assay: HDAC inhibition screening assay using an aminocoumarin derivative of an omega-acetylated lysine as substrate
Format: biochemical
Conditions: compound concentration 10 nM
Method: To measure the inhibitory properties of the compounds of the invention, a screening assay was performed using an aminocoumarin derivative of an omega-acetylated lysine as substrate for the enzmye. This assay has been described in detail in the literature (Hoffmann, K., et al., Nucleic Acids Res. 27 (1999)2057-2058). Using the protocol described therein, there was measured the inhibitory effect of the compounds at a concentration of 10 nM.

With `O=C(CCCCCCC(=O)Nc1ccccc1)NO` [suberanilohydroxamic acid (SAHA), suberanilohydroxamic acid, reference compound] the “Inhibitory effect at 10 nM in %” value was 42%.
